PubChem BioAssay AID504861 (Broad Institute, 2011)
The whole screen tested about 1,200 compounds, of which about 290 (24%) were called active. About 3% were inconclusive and are not listed.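 How the source made its calls: active means compounds lowering cell viability signal with fitted half-maximal concentration at most ten times their highest tested concentration; inconclusive means flat fit with 30 to 70% signal loss, or poor fit; inactive means the rest.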 This is a selection; strong and weak results do not stand in their true shares. Measured potencies and affinities stand elsewhere.

Assay: cytotoxicity in HEK293T cells – cell-based, CellTiter-Glo luminescence, cherry-picks, cytotoxicity control for LMP1 NF-kB inhibitor project, dose response (AID 504861)
Conditions: HEK293T viability, CellTiter-Glo ATP luminescence, 48 h; at 26 µM (top of the series)

SMILES | activity change, negative = cytotoxicity
Cc1cc(N)nc(=O)n1C1CC(O)C(CO)O1 (stereo unspecified) | inactive: 7.04%
CC1S/C(=C(\C#N)C(=O)NCc2ccco2)N(Cc2ccco2)C1=O (stereo unspecified) | inactive: 8.63%
COc1ccc(CN2C(=O)c3cccnc3C2Nc2cc(Cl)ccc2OC)cc1 (stereo unspecified) | inactive: 8.26%
COc1ccc(C(=O)NCCN2CCOCC2)cc1[N+](=O)[O-] | inactive: 13.2%
CN(Cc1ccccc1)c1nc(N)c([N+](=O)[O-])c(NCc2ccccc2)n1 | inactive: -3.83%
NC(=O)c1sc2nccc(Nc3ccccc3)c2c1N | inactive: 2.65%
COc1ccc(CC(C)NCC(O)c2ccc(O)c(NC=O)c2)cc1 (stereo unspecified) | inactive: 9.09%
COc1ccc(OC)c(NC(=O)COC(=O)COc2ccc(Nc3ccccc3)cc2)c1 | inactive: 4.22%
CC(C)(C)C(=O)Nc1nnc(SCC(=O)Nc2ccc3c(c2)OCO3)s1 | inactive: 2.56%
O=C1CCCN2N=C(SCC(=O)Nc3ccc(Br)cc3)SC2=N1 | inactive: 2.42%
O=C(CN1C(=O)c2ccccc2S1(=O)=O)c1ccccc1 | inactive: 16.5%
O=C(CCCOc1ccccc1)N1CCN(c2ccccc2)CC1 | inactive: -1.04%
Cc1cc(C)n(C2CCCCC2OC(=O)c2ccccc2F)n1 (stereo unspecified) | inactive: 7.27%
C[C@H]1C[C@H]2[C@@H]3CCC4=CC(=O)C=C[C@]4(C)[C@@]3(F)[C@@H](O)C[C@]2(C)[C@@]1(O)C(=O)CO | inactive: 6.92%
Cc1nc2sc(-c3ccccc3)cc2c(=O)n1N | inactive: -3.13%
CC1=C(CC(=O)O)c2cc(F)ccc2C1=Cc1ccc(S(C)(=O)=O)cc1 | inactive: 0.041%
CN(C)S(=O)(=O)c1ccc(Cl)c(C(=O)NCCNC(=O)c2cc(S(=O)(=O)N(C)C)ccc2Cl)c1 | inactive: 2.63%
O=C(c1sc2cc([N+](=O)[O-])ccc2c1Cl)N1CCOCC1 | inactive: 8.16%
O=C(CCCN1C(=O)[C@H]2CC=CC[C@H]2C1=O)NCc1nc(-c2ccc(Cl)cc2)no1 | inactive: 0.166%
O=c1c2cnn(-c3ccccc3)c2nc(-c2cccs2)n1-c1ccc(Cl)cc1 | inactive: -3.75%
O=C(Cc1ccc(Cl)cc1)NCC(=O)N1CCCCC1 | inactive: 6.35%
COc1ccc(NC(=O)CCS(=O)(=O)c2ccc3c(c2)CCN3C(C)=O)cc1 | inactive: 1.29%
CCOC(=O)Oc1c(OC)cc(C(=O)O[C@@H]2C[C@@H]3CN4CCc5c([nH]c6cc(OC)ccc56)[C@H]4C[C@@H]3[C@H](C(=O)OC)[C@H]2OC)cc1OC | inactive: -5.9%

SMILES | activity change, negative = cytotoxicity
Cc1cccc(Cn2cc(SCC(=O)Nc3nccs3)c3ccccc32)c1 | inactive: 8.72%
Cc1nnc(NC(=O)CSc2nnc(Cc3cccn3C)n2CCc2ccccc2)s1 | inactive: 3.33%
CN1CCN(C(=O)C2=C[C@@H](C(C)(C)C)C[C@@H](OCc3ccc(CO)cc3)O2)CC1 | inactive: 3.73%
CCn1c(NC(=O)c2ccc(C)cc2)c2ccccc2nc1=O | inactive: 1.77%
O=C(O)CN1C(=O)/C(=C\c2ccccc2OCc2ccc(Cl)cc2Cl)SC1=S | inactive: 5.71%
COc1ccc(C(CNC(=O)Nc2ccccc2)N2CCN(C)CC2)cc1 (stereo unspecified) | inactive: 5.13%
CN(C1CCCCC1)S(=O)(=O)c1ccc(C(=O)N2CCN(c3nc4ccccc4s3)CC2)cc1 | inactive: 3.38%
CC1(C)Cc2nc3sc4c(SCC(=O)O)ncnc4c3cc2CO1 | inactive: 5.57%
O=Cc1cc(OCc2ccccc2)ccc1[B-](F)(F)F | inactive: 17.3%
CC(C)CC1C(=O)N(Cc2cn(CC3CCCCC3)nn2)CCS(=O)(=O)N1Cc1ccc(-c2ccc(F)nc2)cc1 (stereo unspecified) | inactive: -1.62%
NC(=O)c1sc2nc3c(c(-c4ccccc4)c2c1N)CCC3 | inactive: 4.21%
CC(=O)Oc1ccc(C(=O)Nc2cccnc2)cc1 | inactive: 1.74%
CCCCOc1ccc2c(c1)/C(=C(\C(Cl)=C(Cl)Cl)[N+](=O)[O-])N2 | inactive: 2.79%
O=C(NCC1CCOCC1)c1ccc(OC2CCN(Cc3ccccn3)CC2)cc1 | inactive: 10.3%
Cc1ccc(-n2ccc(=O)c(C(=O)Nc3ccc(S(=O)(=O)N4CCOCC4)cc3)n2)cc1 | inactive: 0.296%
NC(=O)N/N=C/c1ccc(N2CCOCC2)s1 | inactive: 10.5%
N=C1S/C(=C\c2ccccc2)C(=O)N1c1ccc(F)cc1 | inactive: 21%
O=C(c1cccs1)N1CC=C(c2ccccc2)CC1 | inactive: 2.88%
COc1ccc(N2C(=O)C(=O)/C(=C(/O)c3ccc(C)cc3)C2c2cccnc2)cc1 (stereo unspecified) | inactive: 12.4%
O=C(Nc1cccc(Cl)c1)Nc1cccc(C(=O)O)c1 | inactive: 4.19%
CCOC(=O)OC(C)OC(=O)[C@@H]1N2C(=O)[C@@H](NC(=O)[C@H](N)c3ccccc3)[C@H]2SC1(C)C (stereo partly specified) | inactive: -12.7%
CC1=CC(=NOC(=O)/C=C/c2ccccc2)C=C(C)C1=O | inactive: 1.24%
CCCCCC(=O)N1C[C@@H](O)[C@H](n2cc(C3CC3)nn2)C[C@@H]1c1ccc(C)cc1 | inactive: 3.84%

SMILES | activity change, negative = cytotoxicity
CCOc1ccccc1NC(=O)Cn1c(=O)sc2ccccc21 | inactive: 3.03%
C=CCN=C1NN=C(c2cc(C)n(CCOC)c2C)CS1 | inactive: 14%
Cn1cc(S(=O)(=O)N2CCN(C(=O)c3ccco3)CC2)c(=O)n(C)c1=O | inactive: 5.9%
Cc1ccc(C(=O)NCC(=O)N(C)Cc2cccc(F)c2)s1 | inactive: 9.7%
Cc1nc(Nc2nc3ccccc3o2)nc2c1CCC2 | inactive: -4.54%
COc1cc(NC(=S)N2CCN(CCO)CC2)cc(OC)c1 | inactive: 3.8%
CCOC(=O)c1cnc(-n2nc(C)cc2C)nc1NNc1cc(C)nc(-c2ccccc2)n1 | inactive: 16.4%
CCNc1nc(CN2CCOCC2)nc2sc3c(c12)CCC3 | inactive: 5.01%
Cc1cc(NC(=O)c2ccc(C)s2)n(-c2nc3ccccc3[nH]2)n1 | inactive: 0.765%
N#CCN(N=Nc1ccccc1)c1ccccc1 | inactive: -6.12%
CCOC(=O)c1cn2nc(N3CCCC3)ccc2n1 | inactive: -3.72%
CC(CN1CCCCC1)OC(=O)c1ccc2c(c1)OCO2 (stereo unspecified) | inactive: 16%
CC1=C(C)C(OCCCl)N(c2cc(O)c(Cl)cc2F)C1=O (stereo unspecified) | inactive: 11.4%
COc1cccc(C(=O)Nc2nc3ccccc3[nH]2)c1 | inactive: -10.2%
COc1cc(C(c2sc3nc(C)nn3c2O)N2CCc3ccccc3C2)cc(OC)c1OC (stereo unspecified) | inactive: 7.79%
O=C(OCc1nc2ccccc2s1)[C@@H]1CCCN1S(=O)(=O)c1ccccc1F | inactive: 12.6%
Oc1[nH]c2ccccc2c1N=Nc1c(F)c(F)c(Cl)c(F)c1F | inactive: 2.12%
CSc1nc(C)cc(C)c1C#N | inactive: 3.54%
Cc1onc(-c2c(Cl)cccc2Cl)c1C(=O)N[C@@H]1C(=O)N2[C@@H]1SC(C)(C)[C@@H]2C(=O)O | inactive: 11.4%
COc1ccc([C@H]2N[C@]3(CCCN(Cc4ccco4)C3=O)[C@H]3C(=O)N(Cc4ccccc4)C(=O)[C@@H]23)cc1 | inactive: 3.06%
COc1ccc(OC)c(NC(=O)COc2coc(CN3CCc4ccccc43)cc2=O)c1 | inactive: 5.75%
COc1cc(/C=C2/SC(=S)N(Cc3ccccc3)C2=O)ccc1OCC(=O)O | inactive: 1.52%
O=C(c1ccccc1Br)N1CCN(Cc2ccc3c(c2)OCO3)CC1 | inactive: 3.51%

SMILES | activity change, negative = cytotoxicity
O=C(Nc1nnc(-c2cccs2)o1)c1cccc(C(F)(F)F)c1 | inactive: 8.43%
COc1ccc(C(=O)NCCNc2nc3cc(C)c(C)cc3cc2C)cc1 | inactive: 1.27%
O=C(CCNc1cccc(F)c1)c1cc2ccccc2o1 | inactive: 5.13%
CCC(C)[C@H](NC(=O)NCc1cccnc1)C(=O)OC (stereo partly specified) | inactive: -1.02%
CCc1ccccc1NC(=O)COC(=O)c1c(C)nsc1NC | inactive: 0.078%
Cc1ccc(S(=O)(=O)N2CCN(C(=O)COC(=O)COc3ccc(Cl)cc3)CC2)c(C)c1 | inactive: -2.35%
CCOC(=O)C1=C(C)N(C)C(=O)NC1c1ccccc1OC (stereo unspecified) | inactive: -1.28%
CCc1c(C)nc2cc(-c3ccc(OC)c(OC)c3)nn2c1NCC1CC1 | inactive: -6.74%
COC(=O)C1=C(C)N(CCCC(=O)O)C(=O)NC1c1cccc(Cl)c1Cl (stereo unspecified) | inactive: 0.475%
Cc1cc(=O)[nH]c(=S)[nH]1 | inactive: 6.02%
CCCc1nc(SCC(=O)NCc2ccco2)c2c(=O)n(C)c(=O)n(C)c2n1 | inactive: 17.5%
COCCn1c(SCC(=O)N2CCc3ccccc32)nc2c(c1=O)SC(C)C2 (stereo unspecified) | inactive: -3.77%
CC(=O)NC(CCS(C)(=O)=O)C(=O)Nc1ccc(Cl)c(Cl)c1 (stereo unspecified) | inactive: 13.4%
COc1ccc(C(c2sc3nc(C)nn3c2O)N2CCC(C(N)=O)CC2)cc1OC (stereo unspecified) | inactive: 4.88%
O=C(CN1C(=O)c2ccccc2S1(=O)=O)c1ccccc1F | inactive: 1.26%
Cc1ccc(S(=O)(=O)N2CCC[C@H]2C(=O)Nc2ccccc2C)cc1 | inactive: 6.33%
CC(C)(C)c1ccc(C(=O)N2CCC(=O)N(C(CO)Cc3ccccc3)CC2)cc1 (stereo unspecified) | inactive: 1.74%
Oc1cccc(/C=N/NC(=S)NCCN2CCOCC2)c1O | inactive: -11%
O=Cc1ccc(-c2cccs2)s1 | inactive: 2.5%
CN1C(=O)C(CC(=O)NC2CCCCC2)SC1=Nc1ccccc1 (stereo unspecified) | inactive: 1.42%
COc1cc(C2CC(=O)N3CN(Cc4ccccc4)CSC3=C2C#N)ccc1OCc1ccccc1 (stereo unspecified) | inactive: 3.25%
Cc1ccc(NC(=S)N=Nc2c(O)n(C)c3ccc(S(=O)(=O)N4CCOCC4)cc23)cc1 | inactive: 7.26%

Exported comma-delimited: entries from further up.
SMILES,"activity change, negative = cytotoxicity"
CC(=O)NC(CCS(C)(=O)=O)C(=O)Nc1ccc(Cl)c(Cl)c1 (stereo unspecified),inactive: 13.4%
COc1ccc(C(c2sc3nc(C)nn3c2O)N2CCC(C(N)=O)CC2)cc1OC (stereo unspecified),inactive: 4.88%
O=C(CN1C(=O)c2ccccc2S1(=O)=O)c1ccccc1F,inactive: 1.26%
Cc1ccc(S(=O)(=O)N2CCC[C@H]2C(=O)Nc2ccccc2C)cc1,inactive: 6.33%
CC(C)(C)c1ccc(C(=O)N2CCC(=O)N(C(CO)Cc3ccccc3)CC2)cc1 (stereo unspecified),inactive: 1.74%
Oc1cccc(/C=N/NC(=S)NCCN2CCOCC2)c1O,inactive: -11%
O=Cc1ccc(-c2cccs2)s1,inactive: 2.5%
